Test results as given in US5661139A, “Bis-(2-aryl) hydrazones” (Alteon Inc., priority 1995, dated 1997).
For at least one compound, name, drawing or mass did not settle the structure.

Test: Inhibition of cross-linking of N-acetyl glycyl-lysine methyl ester in the presence of ribose (fluorescence)
Format: biochemical
Conditions: 0.5M sodium phosphate buffer pH 7.4, ribose, 37 C, 16-24 hours; fluorescence ex 350 nm / em 400 nm
Experimental: N-acetylglycyllysine methyl ester (DP in formula below) Ribose (R in formula below)
0.5M sodium phosphate buffer pH 7.4 N-acetylglycyllysine methyl ester in 0.5M sodium phosphate buffer, pH 7.4
Test compounds dissolved in the above buffer and the pH is adjusted to 7.4, if necessary
Reaction mixtures are prepared as follows:
and incubated at 37 C for 16-24 hours. At the end of the incubation period, the fluroescence is read using an excitation wavelength of 350 nm and emission wavelenth of 400 nm. The inhibition of the cross-linking is calculated from the decrease in the fluorescence in the presence of the test compounds according to the formula:
Inhibition (%)=100×[DPRC fluorescence-RC fluorescence]/DPR

CC(C=NNc1ccccn1)=NNc1ccccn1 [methyl glyoxal bis-(2-pyridyl)hydrazone, Methyl Glyoxal Bis-(2-Pyridyl) Hydrazone]
IC50: 3.91 mM
